Out of some 360,000 compounds screened, about 7,500 (2.1%) were called active. This list was built around the results that the source calls inconclusive (neither active nor inactive); the mix of calls is not that of the screen. The call rests on the fitted dose curve; in most records, active means well fitted inhibition curve with a large enough effect; inconclusive means small, poorly fitted or top-dose-only effect, or effect the other way; inactive means flat fitted curve, though single readings scatter. Potencies beside an inconclusive call are fits to weak or partial responses and may not hold up.
experiment: Nrf2 qHTS screen for inhibitors; settings: A549 ARE-Fluc reporter, luciferase luminescence, 18-24 h; series mostly up to 46 µM; further: nearly all actives have a fitted effect of over 60% in size
In short: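 A549 ARE_Fluc cells (5000/well, 5% FBS OPTI-MEM) pre-incubated 2 h, then treated with compounds 18-24 h at 37C/5% CO2 in concentration-response. CellTiter-Fluor viability read first; BugLite luciferase luminescence after 15 min at room temperature gives Nrf2 activity.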
Potency means the concentration at half of the fitted maximal effect.

Structure (SMILES)	Potency
N#Cc1nc(N2CCCCC2)nc(N(c2ccccc2)c2ccccc2)n1	inactive
COC(=O)c1ccc(NC(=O)CN2CCN(c3cccc(Cl)c3)CC2)cc1	inconclusive: 0.82 µM [falling, full curve, poor fit]
CCn1c(SCCOc2ccc(Cl)cc2)nnc1-c1cccs1	inconclusive: 1.3 µM [falling, full curve, poor fit]
C=CCSc1nnc(N2C(=O)C(O)=C(C(=O)c3ccco3)C2c2ccccc2F)s1 (stereo unspecified)	inactive
O=C(CCCN1C(=O)CCC1=O)Nc1ccc2c(c1)OCO2	inconclusive: 29.1 µM [activator, single point]
Cc1ccc(NC(=O)c2cc(=O)c3ccccc3o2)cc1	inconclusive: 2.91 µM [activator, full curve, poor fit]
CCc1ccc(C(=O)COC(=O)C(Cc2ccccc2)NC(=O)C2CCC(C)CC2)cc1 (stereo unspecified)	inconclusive: 18.4 µM [falling, partial curve, poor fit]
Cc1nc(-c2cc(-c3ccc(Cl)cc3)no2)cs1	inconclusive: 1.46 µM [activator, full curve]
Cc1ccc(S(=O)(=O)NCC2CCC(C(=O)NCc3ccc(F)cc3)CC2)cc1 (stereo unspecified)	inconclusive: 10.3 µM [activator, partial curve, poor fit]
CCCN(C(=O)c1cccc(S(=O)(=O)N2CCCc3ccccc32)c1)C1CCS(=O)(=O)C1 (stereo unspecified)	inconclusive: 0.103 µM [falling, full curve, poor fit]
Cc1cccc(N=Nc2c(C)nn(-c3ccccc3)c2N)c1C	inconclusive: 20.6 µM [activator, partial curve]
COc1cccc(-c2cn3c(n2)sc2cc(C(=O)NCCCc4ccccc4)ccc23)c1	inactive
COc1ccccc1C1=Nn2c(nnc2-c2ccccc2O)SC1	inactive
CSc1ccc(CNC(=O)C2CCCN(S(=O)(=O)N(C)c3ccc(F)cc3)C2)cc1 (stereo unspecified)	inconclusive: 18.4 µM [falling, single point]
COc1ccc(C(=O)N2C(=O)c3ccc(N)cc3C2=O)cc1	inconclusive: 20.6 µM [activator, single point]
O=C(CC1(O)C(=O)N(CCc2ccccc2)c2ccc(Br)cc21)c1ccc(F)cc1 (stereo unspecified)	inconclusive: 29.1 µM [falling, single point]
CCOc1ccc(CCNC(=O)CCCn2c(=O)c3cccn3c3cccnc32)cc1OCC	inconclusive: 29.1 µM [falling, single point]
CCc1ccc2c(c1)c(=O)c(S(=O)(=O)c1ccc(Cl)cc1)cn2CC	inconclusive: 11.6 µM [falling, partial curve]
Cc1nn(Cc2ccc(Cl)c(Cl)c2)c(C)c1NC(=O)c1noc2c1CCc1ccccc1-2	inconclusive: 29.1 µM [falling, single point]
COc1cccc(CNCCSc2nnnn2C)c1OCc1ccccc1	inactive
COc1ccc(C(CNC(=O)c2cccc(NS(=O)(=O)c3ccccc3)c2)N(C)C)cc1 (stereo unspecified)	inconclusive: 9.2 µM [activator, partial curve, poor fit]
Cc1ccc(-c2nnc(SCC#CCOC(=O)c3ccco3)o2)cc1	inconclusive: 29.1 µM [activator, single point]

Structure (SMILES)	Potency
CSc1cccc(NC(=S)N(Cc2ccccc2)Cc2cccnc2)c1	inconclusive: 14.6 µM [falling, partial curve, poor fit]
CCSc1nsc(NC(=O)Nc2cccc(F)c2)n1	inconclusive: 29.1 µM [falling, single point]
COC(=O)c1ccccc1S(=O)(=O)Nc1ccc(OC)cc1	inconclusive: 18.4 µM [activator, partial curve]
CCc1cc(C(=O)N2CCc3c([nH]c4ccccc34)C2c2ccc(OC)cc2F)no1 (stereo unspecified)	inconclusive: 2.31 µM [activator, single point]
O=C1OC[C@H](Cc2ccc3c(c2)OCO3)/C1=C\c1ccc2c(c1)OCO2	inconclusive: 16.4 µM [falling, single point]
Cc1ccc(-c2nnc(SCC(=O)NC3CCCC3)nc2-c2ccc(C)cc2)cc1	active: 1.84 µM
CC1CCN(c2nc3c(c(=O)[nH]c(=O)n3C)n2CC(C)CSc2nnnn2-c2ccccc2)CC1 (stereo unspecified)	inactive
COc1ccc(NC(=O)COc2cccnc2[N+](=O)[O-])cc1OC	inactive
C(=NOCCc1ccccc1)c1ccccn1	inconclusive: 7.31 µM [activator, partial curve]
Fc1ccc(/C=C\c2nccc3c2[nH]c2ccccc23)cc1	inconclusive: 25.9 µM [falling, single point]
Cc1cnc(NC(=O)c2nn(C)cc2[N+](=O)[O-])s1	inconclusive: 29.1 µM [activator, single point]
COc1cccc(-n2c(SCC(=O)c3c[nH]c4ccccc34)nc3ccccc3c2=O)c1	inconclusive: 20.6 µM [falling, single point]
CCOc1ccc(C(=O)N2CCSC2=S)cc1	inconclusive: 16.4 µM [falling, partial curve, poor fit]
CC(C(=O)O)N1C(=O)/C(=C/C=C/c2ccco2)SC1=S (stereo unspecified)	inactive
O=c1oc2ccccc2c(NC2CCCCC2)c1NS(=O)(=O)c1ccc(Br)cc1	inconclusive: 29.1 µM [falling, single point]
CNC(=S)N(C)/N=C1/C(=O)N(Cc2c(Cl)cccc2Cl)c2ccccc21	inconclusive: 20.6 µM [falling, single point]
CSc1ccccc1C(=O)N1CCN(c2cccc(Cl)c2)CC1	active: 16.4 µM
CC1=CC(C)(C)NC(=S)N1c1cccc2ccccc12	inconclusive: 6.51 µM [activator, single point]
COc1ccc(-c2cc(=O)oc3cc(OC(C)C(=O)NCc4ccccn4)ccc23)cc1 (stereo unspecified)	inconclusive: 23.1 µM [falling, partial curve]
C#C[C@]1(O)CC[C@H]2[C@@H]3CCC4=CC(=O)CC[C@@H]4[C@H]3CC[C@@]21CC	inconclusive: 16.4 µM [falling, partial curve, poor fit]
COc1ccc2oc(C(=O)NCCc3ccccc3)c(C)c2c1	inconclusive: 0.0651 µM [activator, full curve, poor fit]
O=Cc1ccc(O)c2ncccc12	inconclusive: 7.31 µM [falling, partial curve]

A draw from above in order of SMILES length, rising:
Structure (SMILES)	Potency
CCSc1nsc(NC(=O)Nc2cccc(F)c2)n1	inconclusive: 29.1 µM [falling, single point]
COc1ccc2oc(C(=O)NCCc3ccccc3)c(C)c2c1	inconclusive: 0.0651 µM [activator, full curve, poor fit]
CSc1ccc(CNC(=O)C2CCCN(S(=O)(=O)N(C)c3ccc(F)cc3)C2)cc1 (stereo unspecified)	inconclusive: 18.4 µM [falling, single point]
Cc1nn(Cc2ccc(Cl)c(Cl)c2)c(C)c1NC(=O)c1noc2c1CCc1ccccc1-2	inconclusive: 29.1 µM [falling, single point]

The listing continues:

Structure (SMILES)	Potency
O=C(Nc1ccc(F)cc1)c1cccnc1NCCc1ccccc1	inconclusive: 29.1 µM [falling, partial curve, poor fit]
COC(=O)Nc1ccc2c(c1)ncn2C1CCCCC1	inconclusive: 29.1 µM [activator, single point]
O=C(CCC(=O)N1CC2CCCN2c2ccccc21)NCc1cccc(Cl)c1 (stereo unspecified)	inconclusive: 20.6 µM [falling, single point]
C=CCOc1c(Br)cc(CNn2nnnc2N)cc1OC	inconclusive: 18.4 µM [falling, single point]
Cc1ccc(C(=O)n2nc(-c3ccco3)nc2NCc2cccs2)cc1	active: 8.2 µM
O=C(O)C1Nc2c(C(=O)N3CCOCC3)cccc2C2C=CCC12 (stereo unspecified)	inactive
O=C(Nc1sc2c(c1C(=O)O)CCC2)c1ccc(F)cc1	inconclusive: 13 µM [falling, partial curve, poor fit]
N#Cc1nc(Nc2cc(Cl)cc(Cl)c2)nc(NC2CCCC2)n1	inconclusive: 29.1 µM [falling, single point]
COc1ccc(NC(=O)N2CCC(n3nnc4cc(C)ccc43)CC2)cc1	inconclusive: 0.82 µM [falling, full curve]
O=C1ON=C(c2ccccc2)/C1=C/c1ccc(O)cc1	inactive
CC(C)c1ccc(N2C(=O)CC(Sc3ncn[nH]3)C2=O)cc1 (stereo unspecified)	inactive
COc1ccc(C2Nc3ccccc3C(=O)N2Cc2cccc3ccccc23)cc1COc1ccc(NC(C)=O)cc1 (stereo unspecified)	inconclusive: 20.6 µM [falling, single point]
CN(C)CCCn1c2c3ccccc3ccc2c2oc(=O)c3ccccc3c21	inconclusive: 32.6 µM [falling, partial curve, poor fit]
CC(C)OCCCNC(=S)N1CCC(C(=O)c2ccc(Cl)cc2)CC1	inconclusive: 29.1 µM [falling, single point]
O=C(Nc1cccnc1)c1ccc(S(=O)(=O)c2ccccc2)cc1	inconclusive: 23.1 µM [falling, single point]
COc1ccc(-n2c(C)nc3cc(C(=O)NCCN4CCOCC4)ccc32)cc1	inconclusive: 1.46 µM [falling, full curve, poor fit]
O=C1Nc2c(Br)cccc2C1=O	inconclusive: 29.1 µM [activator, single point]
Cc1cccc(-c2onc3ccc(C(=O)/C=C/N(C)C)cc23)c1	inconclusive: 29.1 µM [activator, single point]
Cc1cc2c(cc1C)N(C(=O)CSC1=NCCS1)C(C)(C)c1ssc(=S)c1-2	inconclusive: 32.6 µM [falling, single point]
Cc1ccc(S(=O)(=O)Nc2ccc(NS(=O)(=O)c3ccc(C)cc3)c3ncccc23)cc1	inconclusive: 32.6 µM [falling, single point]
N#C/C(=C(/O)c1ccco1)c1nc2ccccc2s1	inconclusive: 2.24 µM [activator, single point]
Cc1ccc(S(=O)(=O)NCc2nc(-c3ccccc3)no2)cc1	inconclusive: 32.6 µM [falling, partial curve, poor fit]
